{"source": "patent US12109199B2", "about": "“Topical mTOR inhibitors for cutaneous proliferative and vascular conditions” (Georgetown University, priority 2018, dated 2024)", "type_in_all_cases": "in vivo, human", "key": {"[1]": {"tested_on": "keloidal, contracted scar", "assay": "1% topical rapamycin on keloidal, contracted burn scar", "conditions": "after 1 month; 1% topical one to two times a day, adjuvant; person"}, "[2]": {"tested_on": "capillary malformation-arteriovenous malformation (CM-AVM) syndrome lesion", "assay": "Topical 1% rapamycin cream in a patient with CM-AVM syndrome", "conditions": "after several months; 1% cream twice a day; person"}, "[3]": {"tested_on": "venolymphatic malformation", "assay": "Topical 1% sirolimus cream in a patient with venolymphatic malformation"}}, "note": "At least one compound was matched to its structure with a doubt left.", "data": [{"smiles": "CO[C@H]1C[C@@H]2CC[C@@H](C)[C@@](O)(O2)C(=O)C(=O)N2CCCC[C@H]2C(=O)O[C@H]([C@H](C)C[C@@H]2CC[C@@H](O)[C@H](OC)C2)CC(=O)[C@H](C)/C=C(\\C)[C@@H](O)[C@@H](OC)C(=O)[C@H](C)C[C@H](C)/C=C/C=C/C=C/1C", "note": "[sirolimus]", "values": [{"measurement": "Scar change in treated areas", "setting": "[1]", "result": "softening and flattening"}, {"measurement": "Appearance of facial birthmark, reported by patient and parent", "setting": "[2]", "result": "improved in appearance and lessened in visibility"}, {"measurement": "Color of lesion", "setting": "[3]; 1% cream twice a day", "result": "improved, lightening some"}, {"measurement": "Birthmark (venolymphatic malformation) response", "setting": "[3]; after 1.5 to 2 months treatment, 1% cream twice a day, person", "result": "started to improve"}, {"measurement": "Lesion height overall", "setting": "[3]; since starting topical sirolimus", "result": "much flatter"}]}]}
